Results published in paper PMC4114980.
These are yes or no findings as the source states them, for the method shown. For part of these data: A result given as binding can be weak or reduced; the word gives no strength. Tags and fused reporters may be left off the sequences shown.

Assays:
[1] = biological target: T1, Chro-FL (1–926), full-length Chromator GST-fusion protein (Drosophila) (UniProt Q86BS3); experiment: far-Western, overlay or dot blot; GST fusion proteins fractionated by SDS-PAGE and blotted to nitrocellulose; incubated overnight at room temperature with 5 µg/ml bovine tubulin polymerized with 1 mM GTP and 20 µM taxol in PEMF buffer; bound microtubules detected with anti-tubulin antibody; both purified
T1 sequence: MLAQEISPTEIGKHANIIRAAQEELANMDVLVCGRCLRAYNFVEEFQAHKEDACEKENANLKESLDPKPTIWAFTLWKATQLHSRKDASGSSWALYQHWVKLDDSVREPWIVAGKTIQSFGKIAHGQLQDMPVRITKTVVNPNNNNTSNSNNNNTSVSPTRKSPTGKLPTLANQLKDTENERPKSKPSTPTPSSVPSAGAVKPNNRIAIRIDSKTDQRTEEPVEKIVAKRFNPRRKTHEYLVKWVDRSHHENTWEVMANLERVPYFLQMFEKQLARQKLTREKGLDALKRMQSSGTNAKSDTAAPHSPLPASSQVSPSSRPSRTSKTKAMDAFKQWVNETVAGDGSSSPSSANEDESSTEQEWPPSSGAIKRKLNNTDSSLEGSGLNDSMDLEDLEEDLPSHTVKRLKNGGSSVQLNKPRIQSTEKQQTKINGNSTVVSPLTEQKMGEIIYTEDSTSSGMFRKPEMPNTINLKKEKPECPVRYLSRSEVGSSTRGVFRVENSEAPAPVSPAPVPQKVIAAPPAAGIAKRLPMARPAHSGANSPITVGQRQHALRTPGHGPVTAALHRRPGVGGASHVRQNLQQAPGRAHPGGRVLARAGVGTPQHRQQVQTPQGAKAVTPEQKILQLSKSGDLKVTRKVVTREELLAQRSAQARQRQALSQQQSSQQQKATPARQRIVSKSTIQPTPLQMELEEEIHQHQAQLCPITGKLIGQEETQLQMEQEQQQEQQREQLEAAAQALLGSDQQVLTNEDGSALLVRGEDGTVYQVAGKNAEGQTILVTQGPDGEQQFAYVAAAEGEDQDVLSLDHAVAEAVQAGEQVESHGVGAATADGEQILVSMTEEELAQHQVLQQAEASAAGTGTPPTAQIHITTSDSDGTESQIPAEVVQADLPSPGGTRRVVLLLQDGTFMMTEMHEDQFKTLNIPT

[2] = biological target: T2, Chro-CTD (329–926), COOH-terminal domain of Chromator, GST-fusion protein (Drosophila) (UniProt Q86BS3); experiment: pull-down; GST fusion proteins or GST on glutathione agarose beads, incubated with purified bovine tubulin in ip buffer with 20 µM taxol and 2 mM GTP (microtubules) overnight at 4°C; blot with tubulin antibody; both purified
T2 sequence: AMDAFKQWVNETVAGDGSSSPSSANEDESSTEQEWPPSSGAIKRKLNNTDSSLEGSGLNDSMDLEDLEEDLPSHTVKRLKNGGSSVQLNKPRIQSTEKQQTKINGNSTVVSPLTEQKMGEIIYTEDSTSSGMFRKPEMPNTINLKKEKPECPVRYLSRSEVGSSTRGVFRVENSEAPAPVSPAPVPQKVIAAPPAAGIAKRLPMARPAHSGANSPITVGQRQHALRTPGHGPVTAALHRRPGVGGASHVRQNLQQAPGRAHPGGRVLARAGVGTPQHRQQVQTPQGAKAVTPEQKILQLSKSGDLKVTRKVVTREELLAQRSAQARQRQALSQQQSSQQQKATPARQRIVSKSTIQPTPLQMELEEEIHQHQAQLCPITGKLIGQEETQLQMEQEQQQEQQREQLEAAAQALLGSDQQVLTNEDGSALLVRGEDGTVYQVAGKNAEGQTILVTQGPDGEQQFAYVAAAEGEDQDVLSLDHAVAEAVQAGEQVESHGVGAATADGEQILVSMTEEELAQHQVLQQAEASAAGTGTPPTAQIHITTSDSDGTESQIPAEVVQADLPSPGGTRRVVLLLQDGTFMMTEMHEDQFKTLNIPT

[3] = biological target: T3, Chro-M1 (329–460), GST-fusion protein (Drosophila) (UniProt Q86BS3); experiment: as above
T3 sequence: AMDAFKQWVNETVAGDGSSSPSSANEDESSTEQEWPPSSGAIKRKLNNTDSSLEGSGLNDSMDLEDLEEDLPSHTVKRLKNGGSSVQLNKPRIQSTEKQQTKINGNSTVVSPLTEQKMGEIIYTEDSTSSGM

[4] = biological target: T4, Chro-M (329-600), truncated COOH-terminal domain of Chromator, GST-fusion protein (Drosophila) (UniProt Q86BS3); experiment: as above
T4 sequence: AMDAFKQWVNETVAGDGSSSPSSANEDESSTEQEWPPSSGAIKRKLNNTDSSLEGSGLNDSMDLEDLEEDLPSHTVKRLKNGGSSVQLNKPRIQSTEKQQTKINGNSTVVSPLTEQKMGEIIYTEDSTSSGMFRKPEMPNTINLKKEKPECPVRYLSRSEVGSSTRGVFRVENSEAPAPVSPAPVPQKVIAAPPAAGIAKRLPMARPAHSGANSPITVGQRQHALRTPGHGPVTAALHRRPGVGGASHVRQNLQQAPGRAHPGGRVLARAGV

[5] = biological target: T1, Chro-FL (1–926), full-length Chromator GST-fusion protein (Drosophila); experiment: as above
[6] = biological target: T5, Chro-M2 (389–531), GST-fusion protein (Drosophila) (UniProt Q86BS3); experiment: as above
T5 sequence: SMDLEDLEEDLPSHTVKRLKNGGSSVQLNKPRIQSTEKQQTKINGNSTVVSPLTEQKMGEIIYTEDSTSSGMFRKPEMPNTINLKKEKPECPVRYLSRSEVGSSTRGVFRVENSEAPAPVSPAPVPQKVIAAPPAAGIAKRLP

binding [1]: binds
binding [2]: binds
binding [3]: no binding
binding [4]: binds
binding [5]: binds
binding [6]: no binding
Substance: purified bovine brain tubulin (complex)
